Data as given in PubChem BioAssay AID1035470 (Broad Institute, 2014).
Out of some 1,800 compounds screened, fewer than 10 were called active. Inconclusive results (about 16%) are left out.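 The calls were made as follows: active = compound lowering the normal-ribosome reporter at least twice as much as the humanized-ribosome reporter, growth loss under a set limit; inconclusive = no clear call, values can overlap the other calls; inactive = the rest.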 This is a selection; strong and weak results do not stand in their true shares. Measured potencies and affinities stand elsewhere.

assay: E. coli strain growth, wild-type against G2058 humanized RFP mutant – G2058 mutant RFP vs wild-type GFP, cherry-pick, two tests, dose response (AID 1035470); conditions: E. coli WT-GFP vs G2058-humanized RFP, fluorescence, 24 h; at 50 µM (top of the series)

Activity change, negative = inhibition, inactive:
COc1ccc(NC(=O)CSc2n[nH]c(-c3ccncc3)n2)c([N+](=O)[O-])c1 -4.21
CC(C)CNc1nc(S(=O)(=O)c2ccccc2)c(Cl)s1 -11.6
CS(=O)(=O)Nc1ccccc1C(=O)NCCSc1ccccc1 -4.79
CC(C)OC(=O)c1sc2nc(-c3ccccc3)ccc2c1N 10.6
COc1ccc(-c2nn(-c3ccccc3C)cc2CNCc2cccnc2)cc1F -12.3
CCOC(=O)c1cc2nc(-c3ccccc3)cc(C)n2n1 -8.04
Cc1ccc(S(=O)(=O)NC(C)C(=O)NCc2ccc(Cl)cc2)cc1 (stereo unspecified) 3.94
CCc1ccc2nc(SCC(=O)Nc3ccccc3N3CCOCC3)c(C#N)cc2c1 24.8
NS(=O)(=O)c1ccc(NC(=O)c2cc(Cl)sc2Cl)cc1 -17.2
Cc1cc(C)cc(NC(=O)COC(=O)CC2CCCC2)c1 4.58
Cc1ccc(-c2c(=O)n(O)c3ccccc3[n+]2[O-])cc1 -1.24
CN1N=C2c3ccccc3CCC2C1c1ccc(F)cc1 (stereo unspecified) -9.95
O=[N+]([O-])c1cccc(COc2ccc(CN3CCOCC3)cc2)c1 -1.83
Cn1cc(CCC(=O)NCc2ccc3c(c2)OCO3)c2ccccc21 -3.65
O=C(Nc1c(S(=O)(=O)c2ccc(Cl)cc2)csc1Br)c1ccccc1Cl 8.08
c1coc(CSc2ncnc3c2oc2ccccc23)c1 -1.81
COc1ccc(CN(C)C[C@H]2Oc3ccc(NS(=O)(=O)c4ccc(Cl)cc4)cc3CC(=O)N([C@@H](C)CO)C[C@H]2C)cc1 -10.5
CCOC(=O)C(C)(C)n1nnc(-c2ccc([N+](=O)[O-])cc2)n1 -8.99
CC(=O)Oc1ccc(N(c2ccccc2)S(=O)(=O)c2ccc(C)cc2)cc1 -15.6
CN(C(=O)COC(=O)CSc1ccc(C(N)=O)cc1[N+](=O)[O-])C1CCCCC1 4.54
CCN(CC(=O)Nc1cccc(C#N)c1)CC(=O)Nc1cccc(OC)c1 -14.5
Cc1cccc(-c2ccc([C@@H]3[C@@H](CO)N4CCCCN(S(=O)(=O)c5ccccc5C)C[C@@H]34)cc2)c1 -12.8
COC(=O)c1cc2c(c3c4cc(F)ccc4n(S(=O)(=O)c4cccc(C)c4)c13)C(=O)N(Cc1ccco1)C2 6.4
CCOc1ccc2[nH]c3c(NCCN(C)C)ncnc3c2c1 10.3
S=c1[nH]nc(-c2ccc3ccccc3n2)n1-c1ccc2c(c1)OCCO2 -7.71
COC(=O)c1cn(C(=O)c2ccc(OC)cc2)c2ccccc12 -12.5
O=C(COc1ccc(Br)cc1)Nc1ccc(C(=O)Nc2ccccc2C(=O)O)cc1 -6.7
CNC(=O)c1ccsc1NC(=O)c1ccc(S(=O)(=O)N2CCc3ccccc32)cc1 -12
COC(=O)c1ccc2nc(-c3ccc(F)cc3)c(Cc3cccc(F)c3)n2c1 -0.548
Cc1ccc2oc(=O)n(CCCOc3ccccc3C)c2c1 -19.2
CCCCOc1ccc(-c2nnn(CCC(=O)N3CCOCC3)n2)cc1 -14.6
O=C(Nc1cccc(Cl)c1)N1C[C@@H]2[C@H](c3ccccc31)[C@@H](CO)N2C(=O)c1cccnc1 -1.82
CCc1ccc(NC(=O)CCc2c(C)nn(-c3ccc(N4CCCCC4)nn3)c2C)cc1 -14.7
CN(Cc1c(F)cccc1Cl)C(=O)c1ccc(NS(=O)(=O)c2ccc3[nH]c(=O)[nH]c3c2)cc1 -11.4
Cc1cc(SCC(=O)c2cccs2)n2nc(C)c(-c3ccc(Cl)cc3)c2n1 -11.5
Cc1ccccc1SCC(=O)OCC(=O)Nc1sccc1C(N)=O -19.8

Filtered by structure, the entries above containing a furan ring, fused or not.
Activity change, negative = inhibition, inactive:
c1coc(CSc2ncnc3c2oc2ccccc23)c1 -1.81
COC(=O)c1cc2c(c3c4cc(F)ccc4n(S(=O)(=O)c4cccc(C)c4)c13)C(=O)N(Cc1ccco1)C2 6.4
